# Results published in the supplement of paper PMC7752906.
# Where a name gives a salt, the structure may show the parent alone. This is one part of the list. Single values are uncertain here, since repeats match poorly.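 Test system: Schistosoma mansoni schistosomula, roughly 40 per well, imaged in bright field over time and compared with wells given 0.1% DMSO. Distance read-out: the paper calls a drug a hit when its Mahalanobis distance is at least 2.47, three standard deviations above the DMSO control mean. Degeneracy is the share of worms classified opaque.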
# Test system: Schistosoma mansoni schistosomula
# Assay: degeneracy (percent of somules classified as degenerate/opaque); higher = more parasite degeneration/death; extreme values may be limits of the assay
# Details: 10 µM; 72 h
row,Structure (SMILES),degeneracy
1,O=C1O[C@H](CO)[C@@H](O)[C@H](O)[C@H]1O [Gluconolactone],5%
2,Nc1ncnc(Nc2ccc(Cl)cc2)n1 [Chlorazanil Hydrochloride],13.9%
3,Cc1cc(=O)n(-c2ccccc2)n1C [Antipyrine],18.2%
4,CO[C@H]1O[C@@H]2O[C@@]3(C)CC[C@H]4[C@H](C)CC[C@@H]([C@H]1C)[C@@]24OO3 [Artemether],7.41%
5,NC12CC3CC(CC(C3)C1)C2 [Amantadine],15.4%
6,Cc1ccc(-c2ncc(Cl)cc2-c2ccc(S(C)(=O)=O)cc2)cn1 [Etoricoxib],8.82%
7,CC1CCc2c(N3CCC(O)CC3)c(F)cc3c(=O)c(C(=O)O)cn1c23 (stereo not given) [Nadifloxacin],3.03%
8,CC(=O)N(O)CCCCCNC(=O)CCC(=O)N(O)CCCCCNC(=O)CCC(=O)N(O)CCCCCN [Deferoxamine],4.08%
9,CCN[C@H]1C[C@H](C)S(=O)(=O)c2sc(S(N)(=O)=O)cc21 [Dorzolamide??hcl],5.88%
10,CN1CC(=O)NC1=N [Creatinine],15.8%
11,CN1CCc2cccc3c2[C@H]1Cc1ccc(O)c(O)c1-3 [Apomorphine Hydrochloride],3.33%
12,CN1CCc2cccc3c2[C@H]1Cc1ccc(O)c(O)c1-3 [R(-)-apomorphine],0%
13,CCC(NC(C)C)C(O)c1ccc(O)c(O)c1 (stereo not given) [Isoetharine Mesylate],9.68%
14,CCC(Cc1c(I)cc(I)c(N)c1I)C(=O)O (stereo not given) [Iopanic Acid],7.14%
15,C[C@]12CC[C@@H]3c4ccc(O)cc4CC[C@H]3[C@@H]1CC[C@@H]2OC(=O)CCC1CCCC1 [Estradiol Cypionate],16%
16,C[C@@H]1[C@H](O)[C@@H](C)/C=C/C=C/C=C/C=C/C=C/C=C/C=C/[C@H](O[C@@H]2O[C@H](C)[C@@H](O)[C@H](N)[C@@H]2O)C[C@@H]2O[C@](O)(C[C@@H](O)C[C@@H](O)[C@H](O)CC[C@@H](O)C[C@@H](O)CC(=O)O[C@H]1C)C[C@H](O)[C@H]2C(=O)O [Amphotericin B],6.98%
17,CCOC(=O)C(C)(C)Oc1ccc(Cl)cc1 [Clofibrate],100%
18,CCCc1nc(C(C)(C)O)c(C(=O)O)n1Cc1ccc(-c2ccccc2-c2nnn[nH]2)cc1 [Olmesartan],0%
19,O=C(OCc1ccccc1)c1ccccc1 [Benzyl Benzoate],83.3%
20,OC(CCN1CCCCC1)(c1ccccc1)C1CCCCC1 (stereo not given) [Trihexyphenidyl],12.2%
21,Cc1ccc2c(Cl)cc(Cl)c(O)c2n1 [Chlorquinaldol],0%
22,N=C(N)N/N=C/c1c(Cl)cccc1Cl [Guanabenz],16.3%
23,CN(C)CCOC(=O)COc1ccc(Cl)cc1 [Meclofenoxate],9.38%
24,Brc1c(NC2=NCCN2)ccc2nccnc12,2.33%
25,COC(=O)C(N)CS (stereo not given) [Mecysteine Hydrochloride],3.12%

# 2 entries drawn at random from the list so far:
row,Structure (SMILES),degeneracy
19,O=C(OCc1ccccc1)c1ccccc1 [Benzyl Benzoate],83.3%
1,O=C1O[C@H](CO)[C@@H](O)[C@H](O)[C@H]1O [Gluconolactone],5%

# Next part.

row,Structure (SMILES),degeneracy
1,CC(N)C12CC3CC(CC(C3)C1)C2 (stereo not given) [Rimantadine Hydrochloride],0%
2,CC(N)C12CC3CC(CC(C3)C1)C2 (stereo not given) [Rimantadine],100%
3,CN(C)CC[C@@H](c1ccc(Cl)cc1)c1ccccn1 [Dexchlorpheniramine],17.4%
4,NC(N)=O,6.67%
5,CCOc1ccccc1OCCNC(C)Cc1ccc(OC)c(S(N)(=O)=O)c1 (stereo not given) [Amsulosin],100%
6,CN(C)[C@@H]1C(O)=C(C(N)=O)C(=O)[C@@]2(O)C(O)=C3C(=O)c4c(O)ccc(Cl)c4[C@@H](O)[C@H]3C[C@@H]12 [Demeclocycline Hydrochloride],0%
7,CC(Oc1ccccc1)C(=O)N[C@@H]1C(=O)N2[C@@H]1SC(C)(C)[C@@H]2C(=O)O (stereo not given in full) [Phenethicillin Potassium],3.23%
8,COc1ccc(-c2cc(C(F)F)nn2-c2ccc(S(N)(=O)=O)cc2)cc1F [Deracoxib],2.44%
9,Cn1nnnc1SCC1=C(C(=O)O)N2C(=O)[C@@H](NC(=O)[C@H](OC=O)c3ccccc3)[C@H]2SC1 [Cefamandole Nafate],22.7%
10,C[C@]12CC[C@@H]3c4ccc(O)cc4CC[C@H]3[C@@H]1C[C@@H](O)[C@@H]2O [Estriol],20.8%
11,CCCCC(=O)O[C@]1(C(=O)CO)CC[C@H]2[C@@H]3CCC4=CC(=O)CC[C@]4(C)[C@H]3[C@@H](O)C[C@@]21C [Hydrocortisone Valerate],3.12%
12,CCc1cccc2c3c([nH]c12)C(CC)(CC(=O)O)OCC3 (stereo not given) [Etodolac],5.56%
13,CC1=C(CC(=O)O)c2cc(F)ccc2/C1=C\c1ccc([S+](C)[O-])cc1 (stereo not given) [Sulindac],5.88%
14,Cc1ccccc1N1C(=O)c2cc(S(N)(=O)=O)c(Cl)cc2NC1C (stereo not given) [Metolazone],3.23%
15,Cc1cc(-n2c(=O)[nH]c(=O)n(C)c2=O)ccc1Oc1ccc(SC(F)(F)F)cc1 [Toltrazuril],20%
16,CC(C)COC(=O)c1ccc(N)cc1 [Isobutamben],100%
17,C=CC1=C(C(=O)O)N2C(=O)[C@@H](NC(=O)/C(=N\OCC(=O)O)c3csc(N)n3)[C@H]2SC1 [Cefixime],0%
18,OCCOCCN1CCN(C(c2ccccc2)c2ccc(Cl)cc2)CC1 (stereo not given) [Hydroxyzine],0%
19,CC(=O)Oc1c(C)c(C)c2c(c1C)CCC(C)(CCCC(C)CCCC(C)CCCC(C)C)O2 (stereo not drawn) [Alpha-tochopheryl Acetate],11.1%
20,CCCCC(CC)CN=C(N)N=C(N)NCCCCCCNC(N)=NC(N)=NCC(CC)CCCC (stereo not given) [Alexidine Hydrochloride],100%
21,CN(C)[C@@H]1C(O)=C(C(N)=O)C(=O)[C@@]2(O)C(O)=C3C(=O)c4c(O)ccc(Cl)c4[C@@](C)(O)[C@H]3C[C@@H]12 [Chlortetracycline],10.5%
22,O=C1OC2(c3ccc(O)cc3Oc3cc(O)ccc32)c2ccccc21 [Fluorescein],17.8%
23,COc1cnc(NS(=O)(=O)c2ccc(N)cc2)nc1 [Sulfameter],3.85%
24,O=C(O)CCC(=O)Nc1ccc(S(=O)(=O)Nc2nccs2)cc1 [Succinylsulfathiazole],2.44%
25,O=NN(CCCl)C(=O)NC1CCCCC1 [Lomustine],2.13%
